Source: PMC9889717
Results are given in words; binding and its absence hold for the method and conditions named. In cells and extracts the contact can be indirect. Some results given as binding are weak or reduced against the parent protein; the word gives no strength. Blank lines part the entries; values can stand above or below the molecule they belong to.

Chains of the proteins cited; added tags and fusions are not shown.
UniProt P49454: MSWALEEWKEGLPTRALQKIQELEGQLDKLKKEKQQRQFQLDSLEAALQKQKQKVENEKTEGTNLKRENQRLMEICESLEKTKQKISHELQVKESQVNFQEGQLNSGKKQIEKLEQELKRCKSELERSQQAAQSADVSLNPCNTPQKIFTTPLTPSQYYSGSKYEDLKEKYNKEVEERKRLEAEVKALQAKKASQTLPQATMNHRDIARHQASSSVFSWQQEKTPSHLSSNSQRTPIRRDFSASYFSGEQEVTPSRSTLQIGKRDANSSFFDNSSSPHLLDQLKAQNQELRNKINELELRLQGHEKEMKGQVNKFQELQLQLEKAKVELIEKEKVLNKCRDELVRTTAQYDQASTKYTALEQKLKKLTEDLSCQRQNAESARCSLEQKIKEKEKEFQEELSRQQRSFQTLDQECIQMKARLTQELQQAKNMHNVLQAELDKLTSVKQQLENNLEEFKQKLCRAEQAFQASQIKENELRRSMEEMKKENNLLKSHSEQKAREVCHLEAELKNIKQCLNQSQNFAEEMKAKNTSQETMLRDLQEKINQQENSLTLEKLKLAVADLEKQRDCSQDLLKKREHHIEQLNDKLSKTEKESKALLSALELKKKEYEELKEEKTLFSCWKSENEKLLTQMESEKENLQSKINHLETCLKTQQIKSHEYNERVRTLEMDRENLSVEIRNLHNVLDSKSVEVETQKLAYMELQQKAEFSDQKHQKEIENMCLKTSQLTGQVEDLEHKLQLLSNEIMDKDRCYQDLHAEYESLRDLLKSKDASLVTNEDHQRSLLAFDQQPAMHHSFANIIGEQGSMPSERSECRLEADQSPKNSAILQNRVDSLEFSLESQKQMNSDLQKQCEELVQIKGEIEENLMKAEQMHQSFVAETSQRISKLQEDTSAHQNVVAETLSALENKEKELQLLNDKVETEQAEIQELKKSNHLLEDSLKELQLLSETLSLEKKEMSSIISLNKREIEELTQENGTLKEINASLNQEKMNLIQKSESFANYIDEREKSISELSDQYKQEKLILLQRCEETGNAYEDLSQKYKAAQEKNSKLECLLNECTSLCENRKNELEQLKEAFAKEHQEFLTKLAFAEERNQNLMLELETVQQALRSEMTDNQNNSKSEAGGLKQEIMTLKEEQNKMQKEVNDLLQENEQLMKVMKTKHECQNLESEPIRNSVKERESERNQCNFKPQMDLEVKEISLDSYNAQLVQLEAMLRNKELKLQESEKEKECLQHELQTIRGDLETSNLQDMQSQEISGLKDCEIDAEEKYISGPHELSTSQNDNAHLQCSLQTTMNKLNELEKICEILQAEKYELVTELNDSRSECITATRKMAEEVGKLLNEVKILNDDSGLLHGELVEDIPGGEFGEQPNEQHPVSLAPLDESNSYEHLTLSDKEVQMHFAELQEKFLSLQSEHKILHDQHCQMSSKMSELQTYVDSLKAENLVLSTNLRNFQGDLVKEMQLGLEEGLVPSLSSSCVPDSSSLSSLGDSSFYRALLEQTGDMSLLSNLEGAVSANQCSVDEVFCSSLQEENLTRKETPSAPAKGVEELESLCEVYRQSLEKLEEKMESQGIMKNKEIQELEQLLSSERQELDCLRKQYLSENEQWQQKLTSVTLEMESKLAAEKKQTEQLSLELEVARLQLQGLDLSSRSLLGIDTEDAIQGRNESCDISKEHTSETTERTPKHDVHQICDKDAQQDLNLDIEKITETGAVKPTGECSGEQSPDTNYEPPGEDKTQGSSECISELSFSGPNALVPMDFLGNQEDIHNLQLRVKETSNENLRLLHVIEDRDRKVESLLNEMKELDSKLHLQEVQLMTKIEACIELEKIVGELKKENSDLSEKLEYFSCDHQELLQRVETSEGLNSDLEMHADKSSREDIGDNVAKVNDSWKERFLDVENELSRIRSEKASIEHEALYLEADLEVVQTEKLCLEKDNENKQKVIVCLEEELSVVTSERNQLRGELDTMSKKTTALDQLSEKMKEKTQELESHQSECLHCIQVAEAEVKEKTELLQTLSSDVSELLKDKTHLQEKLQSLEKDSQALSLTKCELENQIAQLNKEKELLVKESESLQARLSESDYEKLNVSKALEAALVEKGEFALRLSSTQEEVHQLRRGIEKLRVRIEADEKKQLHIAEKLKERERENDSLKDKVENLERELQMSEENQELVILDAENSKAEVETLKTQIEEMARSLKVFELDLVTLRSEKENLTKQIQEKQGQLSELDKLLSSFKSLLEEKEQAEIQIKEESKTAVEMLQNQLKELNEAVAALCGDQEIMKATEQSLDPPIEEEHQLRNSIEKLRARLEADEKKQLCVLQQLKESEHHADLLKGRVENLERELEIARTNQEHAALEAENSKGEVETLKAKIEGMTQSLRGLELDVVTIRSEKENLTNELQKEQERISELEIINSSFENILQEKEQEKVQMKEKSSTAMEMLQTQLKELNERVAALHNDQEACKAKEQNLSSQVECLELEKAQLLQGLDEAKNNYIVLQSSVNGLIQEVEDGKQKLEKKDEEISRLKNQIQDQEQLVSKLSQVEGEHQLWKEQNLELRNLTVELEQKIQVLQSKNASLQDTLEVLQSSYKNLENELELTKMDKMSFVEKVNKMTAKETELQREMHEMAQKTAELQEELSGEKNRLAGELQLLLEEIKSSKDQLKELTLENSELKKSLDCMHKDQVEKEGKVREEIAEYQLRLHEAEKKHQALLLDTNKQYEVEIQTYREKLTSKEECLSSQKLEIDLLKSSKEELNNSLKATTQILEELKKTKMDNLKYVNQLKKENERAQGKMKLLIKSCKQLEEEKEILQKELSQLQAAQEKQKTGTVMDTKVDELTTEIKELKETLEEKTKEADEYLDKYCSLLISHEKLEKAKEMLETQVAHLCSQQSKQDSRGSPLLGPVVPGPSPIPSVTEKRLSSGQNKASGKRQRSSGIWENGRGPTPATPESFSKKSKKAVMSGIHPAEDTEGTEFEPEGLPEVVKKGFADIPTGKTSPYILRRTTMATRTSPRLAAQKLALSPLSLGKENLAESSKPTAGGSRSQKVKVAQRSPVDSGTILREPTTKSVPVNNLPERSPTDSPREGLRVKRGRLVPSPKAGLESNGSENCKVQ

Key:
[1] = molecular target: T1, Rb (human (endogenous in MDA-MB-231)) (UniProt P06400); experiment: co-IP; endogenous proteins in RIPA cell lysate; antibody and protein A/G magnetic beads overnight at 4 °C, beads washed 3 times with lysis buffer, western blotting; for Fig. 4D cells with si-CENPF or si-control
T1 sequence: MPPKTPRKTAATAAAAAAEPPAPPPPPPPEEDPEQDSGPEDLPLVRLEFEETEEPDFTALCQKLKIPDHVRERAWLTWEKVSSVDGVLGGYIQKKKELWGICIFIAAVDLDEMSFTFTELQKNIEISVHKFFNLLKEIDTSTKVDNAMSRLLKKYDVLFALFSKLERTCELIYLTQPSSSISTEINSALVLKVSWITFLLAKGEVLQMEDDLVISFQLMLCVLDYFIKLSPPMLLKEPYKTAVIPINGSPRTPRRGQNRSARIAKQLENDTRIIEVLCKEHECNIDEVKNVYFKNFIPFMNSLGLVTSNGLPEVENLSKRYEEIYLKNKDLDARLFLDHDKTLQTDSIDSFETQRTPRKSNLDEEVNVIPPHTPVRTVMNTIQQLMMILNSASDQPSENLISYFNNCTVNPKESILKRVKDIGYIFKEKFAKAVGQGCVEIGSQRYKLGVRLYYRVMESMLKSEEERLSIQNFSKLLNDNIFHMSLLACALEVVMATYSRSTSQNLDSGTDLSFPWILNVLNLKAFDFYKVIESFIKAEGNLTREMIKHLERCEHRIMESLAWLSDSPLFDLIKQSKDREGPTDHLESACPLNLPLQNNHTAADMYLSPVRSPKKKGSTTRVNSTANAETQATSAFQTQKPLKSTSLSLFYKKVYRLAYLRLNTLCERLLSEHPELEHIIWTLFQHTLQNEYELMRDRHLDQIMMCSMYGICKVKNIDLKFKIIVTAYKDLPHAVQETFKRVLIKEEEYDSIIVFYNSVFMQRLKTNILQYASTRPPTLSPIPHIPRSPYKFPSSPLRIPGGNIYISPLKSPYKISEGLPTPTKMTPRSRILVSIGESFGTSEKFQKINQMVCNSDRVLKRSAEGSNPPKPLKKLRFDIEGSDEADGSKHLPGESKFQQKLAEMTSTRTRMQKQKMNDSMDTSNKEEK

[2] = molecular target: CENPF (centromere protein) (human (endogenous in MDA-MB-231)) (UniProt P49454); experiment: as above

- binding [1]: binds
Molecule: CENPF (centromere protein) (from UniProt P49454 1-3114)

- binding [2]: binds
B1: Rb (protein, UniProt P06400 1-928)
chain: T1 sequence
